Source: PMC11580471
No constants are given. Whether binding was seen depends on the method and setting. In cells and extracts the contact can be indirect. Some results given as binding are weak or reduced against the parent protein; the word gives no strength. Tags and fused reporters may be left off the sequences shown.

By UniProt entry, the sequences of proteins in these tests, tags left out. Residues count along the entry.
UniProt P05067, residues 18-770: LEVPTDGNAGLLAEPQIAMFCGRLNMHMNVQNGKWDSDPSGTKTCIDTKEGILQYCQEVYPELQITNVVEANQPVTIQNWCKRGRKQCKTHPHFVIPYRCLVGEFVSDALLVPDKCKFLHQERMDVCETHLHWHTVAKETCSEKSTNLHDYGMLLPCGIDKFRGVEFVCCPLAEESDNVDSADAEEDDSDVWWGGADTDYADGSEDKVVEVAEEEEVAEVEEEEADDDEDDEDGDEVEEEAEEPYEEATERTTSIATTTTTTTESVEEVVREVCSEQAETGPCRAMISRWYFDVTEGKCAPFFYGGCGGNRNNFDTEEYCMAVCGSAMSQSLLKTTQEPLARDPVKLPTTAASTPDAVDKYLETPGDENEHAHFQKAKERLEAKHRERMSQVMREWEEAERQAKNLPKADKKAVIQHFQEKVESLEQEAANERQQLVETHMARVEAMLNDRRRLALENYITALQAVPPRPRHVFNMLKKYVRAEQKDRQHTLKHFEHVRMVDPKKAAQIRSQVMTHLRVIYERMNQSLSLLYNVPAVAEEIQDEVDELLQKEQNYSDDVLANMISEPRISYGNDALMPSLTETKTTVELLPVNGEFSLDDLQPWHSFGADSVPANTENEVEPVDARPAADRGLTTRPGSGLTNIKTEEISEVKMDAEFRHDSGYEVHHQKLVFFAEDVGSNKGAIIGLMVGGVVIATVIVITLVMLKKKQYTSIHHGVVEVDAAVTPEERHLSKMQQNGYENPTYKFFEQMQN

Molecular target: T1, F-box and leucine-rich repeat protein 16 (Flag-FBXL16) (human) (UniProt Q8N461)
T1 sequence: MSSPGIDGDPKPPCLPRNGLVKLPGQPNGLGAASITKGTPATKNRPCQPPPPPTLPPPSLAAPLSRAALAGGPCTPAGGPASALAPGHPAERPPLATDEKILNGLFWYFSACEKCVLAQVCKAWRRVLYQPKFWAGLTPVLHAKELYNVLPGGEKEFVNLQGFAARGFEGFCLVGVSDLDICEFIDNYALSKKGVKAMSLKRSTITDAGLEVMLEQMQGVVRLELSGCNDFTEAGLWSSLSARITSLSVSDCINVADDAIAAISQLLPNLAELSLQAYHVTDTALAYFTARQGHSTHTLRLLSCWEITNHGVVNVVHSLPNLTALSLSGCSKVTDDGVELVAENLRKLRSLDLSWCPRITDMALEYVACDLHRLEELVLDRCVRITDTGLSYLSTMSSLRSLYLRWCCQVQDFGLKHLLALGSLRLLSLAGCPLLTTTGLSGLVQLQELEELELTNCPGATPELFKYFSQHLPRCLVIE
Experiment: co-IP; Flag-FBXL16 and Myc-APP vectors transfected into HEK293 cells, 24 h; RIPA lysis; lysate incubated with anti-Flag or anti-Myc antibodies overnight at 4 °C, magnetic beads, washed three times; Western blot

In the case of “amyloid precursor protein (Myc-APP) (from UniProt P05067 18-770)”, the binding is reported as “binds”.
